Experimental data as given in PubChem BioAssay AID1439 (NMMLSC, 2008).
“And” between values parts separate entries of the source, which are not always exact repeats. Identical values can stand only once. The campaign covered roughly 220,000 compounds. About 770 (0.35%) were called active. Inconclusive results, whose numbers are uncertain, are shown with a selection of clear calls. No stated cut-off is given here; in the data, active means binding response below about 49% or above about 150%; inconclusive means no clear call, values can overlap the other calls; inactive means in between.

Amino acid sequences for entries named in this document (tags omitted).
UniProt P09471, whole entry, looked up: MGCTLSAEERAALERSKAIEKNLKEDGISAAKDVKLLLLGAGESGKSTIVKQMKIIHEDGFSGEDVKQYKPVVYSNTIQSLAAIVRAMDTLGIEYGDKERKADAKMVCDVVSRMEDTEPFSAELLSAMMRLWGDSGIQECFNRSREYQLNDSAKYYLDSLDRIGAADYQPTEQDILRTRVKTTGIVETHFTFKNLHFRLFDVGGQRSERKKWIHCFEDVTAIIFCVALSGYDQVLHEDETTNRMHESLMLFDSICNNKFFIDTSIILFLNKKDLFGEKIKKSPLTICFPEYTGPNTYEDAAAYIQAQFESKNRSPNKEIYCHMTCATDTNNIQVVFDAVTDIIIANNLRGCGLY

Molecular target: Guanine nucleotide-binding protein G(o) subunit alpha (Homo sapiens) (UniProt P09471)
Experiment: RGS7-Galphao binding modulators, primary screen, biochemical, multiplexed bead flow cytometry (AID 1439);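 further: fluorescent Galphao held in activated GDP-AlF4 state binding bead-coupled RGS7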
Settings: at 10 µM, actives lie on both sides

SMILES	binding response (% of control)
Cc1c(CC(=O)O)c(=O)oc2c(C)c(OCc3nn[nH]n3)ccc12	inconclusive: 87.2%
CCn1c(CSCc2c(Cl)cccc2Cl)n[nH]c1=S	inconclusive: -29.3%
CCCCCc1cc(=O)[nH]c(=S)[nH]1	inconclusive: 108%
CCN(CC)CCNCc1cc(Br)ccc1OCC(=O)NCc1ccccc1	inconclusive: 106%
Nc1nn(-c2ccccc2)nc1C(=O)OCc1ccccc1	inconclusive: 130%
C=CCN=C(NC#N)SCC(=O)NC(C)(C)C	active: 45.5%
COc1ccc(CCNC(=O)C2CC(=O)N(c3ccc(C(C)(C)C)cc3)C2)cc1OC (configuration not stated)	inconclusive: 103%
COc1ccc(CC(=O)NCC(c2ccc(OC)cc2)N(C)C)cc1 (configuration not stated)	inconclusive: 85%
CC(C)(C)C(=O)/C=C/c1ccc(Oc2ccccc2)cc1	inconclusive: 24.6%
CC(C)c1cc(C(F)(F)F)n2nc(C(=O)Nc3ccc(-n4cnnn4)cc3)cc2n1	inconclusive: 106%
Cc1cccc(NC(=S)N2CCN(c3ccc(F)cc3)CC2)c1	inactive: 101%
S=C1NCN(Cc2ccco2)CN1Cc1ccco1	inconclusive: 252%
Cc1c(Br)c(=O)oc2c(Br)c(O)ccc12	inconclusive: 123%
NC(=O)COC(=O)c1cc(-c2ccco2)nc2ccccc12	inconclusive: -294%
O=C(NNc1ccccc1[N+](=O)[O-])Nc1cccc(Cl)c1	inconclusive: 116%
NC(=O)Cc1ccc2c(c1)[nH]c1ccccc12	inconclusive: 79.2%
Cc1nc(N)c(CC(Br)CBr)c(Cl)n1 (configuration not stated)	inconclusive: 58.6%
CC(C)CNC(=S)Nc1ccc(Oc2ccccc2)cc1	inactive: 85.9%
CCOC(=O)c1c(NC(=O)CCC(=O)N(CC)CC)sc2c1CC(C)(C)OC2	inconclusive: 81.1%
Cc1ccc(OCC(=O)Nc2ccc(S(=O)(=O)N3CCCCC3)cc2)c([N+](=O)[O-])n1	inconclusive: 92.4%
COc1cc(NS(=O)(=O)c2ccc(N/C=C\C(=O)c3ccc(F)cc3)cc2)nc(OC)n1	inactive: 103%
Cc1ccc(S(=O)(=O)NCC2CCC(C(=O)NCCCOC(C)C)CC2)cc1 (configuration not stated)	inactive: 104%

SMILES	binding response (% of control)
O=C(Cc1ccc(-n2c(=O)c3sccc3n(CC(=O)Nc3ccccc3F)c2=O)cc1)NCc1ccco1	inactive: 96.7%
COc1ccc(Oc2ncccc2NC(=O)c2cccc(C)c2C)cc1	inconclusive: 175%
Cn1cc(Cl)c(/C=C(\C#N)S(=O)(=O)c2ccccc2)n1	inconclusive: 120%
Cc1noc(C)c1CCC(=O)N1CCCC(CCC(=O)NCc2ccc(F)c(F)c2)C1 (configuration not stated)	inactive: 100%
O=C1CC(c2ccccc2)CC(=O)C1=CN1CCCC1 (configuration not stated)	inconclusive: 106%
CSc1ncc(CN2CCc3c([nH]c4ccccc34)C2c2cccc(C)n2)cn1 (configuration not stated)	inconclusive: 99.9%
CC1(OC(=O)C2CCCC2)C(=O)C=C2C=C(c3ccsc3)N(CCN3CCOCC3)C=C2C1=O (configuration not stated)	inconclusive: 93.7%
COc1ccccc1NS(=O)(=O)c1cccc(C(=O)N/N=C/c2ccc(NC(C)=O)cc2)c1	inconclusive: 141%
CCCc1ncc(C(O)c2cccc(OC)c2)n1C (configuration not stated)	inconclusive: 96.8%
COC(=O)c1sc(-c2ccc(C(C)(C)C)cc2)cc1NC(=O)/C=C/C(=O)O	inconclusive: 93.4%
O=CNC(n1cnc2c(N3CCOCC3)ncnc21)C(Cl)(Cl)Cl (configuration not stated)	inconclusive: 96%
Nc1c(C(=O)Nc2ccccc2F)sc2nc(-c3cccnc3)ccc12	inconclusive: 109%
CCc1n[nH]c(=S)n1/N=C/c1cc(OC)cc([N+](=O)[O-])c1O	inconclusive: 91.2%
O=C(CCN1C(=O)c2cccc3cccc(c23)C1=O)NC1CCS(=O)(=O)C1 (configuration not stated)	inconclusive: 93.9%
Cc1ccc(NS(=O)(=O)c2cc([N+](=O)[O-])ccc2N/N=C/c2sc(N3CCOCC3)nc2-c2ccccc2)c(C)c1	inconclusive: 182%
CCC(=Nc1ccccc1)C1=C(O)CCCC1=O	inconclusive: -54.2%
CCC1=C2CC[C@H]3C(=O)N(c4ccccc4)C(=O)[C@H]3[C@H]2[C@@]2(C)C(=NCC3CC3)OC(=O)N2C1=O	inconclusive: 103%
C/C(N)=C(/C#N)C(=O)COC(=O)c1cccc(C)c1O	inconclusive: 56.9%
CNC(=O)c1ccc(-c2cc(C(F)(F)F)nn2C)s1	inconclusive: 85%
COc1ccc(CCNc2ccc(C(CC(N)=O)NC(=O)Cc3ccc(Br)cc3)cc2[N+](=O)[O-])cc1 (configuration not stated)	inconclusive: 92.2%
CCOC(=O)CC(NC(=O)Cn1nnc(-c2ccccc2F)n1)c1ccccc1Cl (configuration not stated)	inactive: 100%
OC1(c2cccs2)CN(c2ccccc2)C2=[N+]1CCCC2 (configuration not stated)	inconclusive: 130%

SMILES	binding response (% of control)
Cn1nc(C(F)(F)F)c(-c2cccc(C(F)(F)F)c2)c1NC(=O)c1ccco1	inconclusive: 107%
CCC(C(=O)Nc1ccccc1-c1ccccc1)c1ccccc1 (configuration not stated)	inactive: 94.6%
CN(C(=O)COC(=O)c1cc(S(=O)(=O)N2CCCCC2)ccc1N1CCOCC1)C1CCS(=O)(=O)C1 (configuration not stated)	inconclusive: 129%
Cc1ccsc1/C=N/NC(=O)Cc1ccc(Cl)cc1	inconclusive: 107%
COc1cc(OC)c2c(-c3ccccc3)cc(=O)oc2c1C(CCN1CCCCC1)c1ccc2c(c1)OCO2 (configuration not stated)	inconclusive: 92.7%
COc1ccc(CCNC(=O)C/C(C)=N/NC(=O)C(c2ccccc2)c2ccccc2)cc1OC	inconclusive: 71.8%
S=c1[nH]nc(NCCCN2CCOCC2)s1	inconclusive: -15.6%
COc1cc(OC)c2ccc(=O)oc2c1C(CCN1CCCC1)c1ccc(N(C)C)cc1 (configuration not stated)	inconclusive: 109%
Cc1ccc(-c2ccc(/C=C3\C(=O)ON=C3c3ccccc3)o2)c([N+](=O)[O-])c1	inactive: 90.8%
NC(=O)c1ccccc1Br	inconclusive: 118%
O=C(NCCc1cccs1)C1CC(c2cccc(F)c2)=NO1 (configuration not stated)	inconclusive: 108%
Cc1cc2c([nH]c3ccccc32)c2c1OC(C)(C)C=C2	inconclusive: 83.8%
Cc1c(NC(=O)/C=C/c2ccc(S(=O)(=O)N3CCOCC3)cc2)c(=O)n(-c2ccccc2)n1C	inactive: 98.8%
CCC1=C(OC(=O)N(CC)CC)N2C(=O)OC(=NCC(=O)OC)[C@]2(C)[C@H]2C1=CC[C@H]1C(=O)N(C)C(=O)[C@H]12	inconclusive: 119%
Cc1cc(C)nc(-n2nc(C)c3c(C(=O)O)cc(-c4cccc(Br)c4)nc32)n1	inconclusive: 117%
CCCCc1ccc(NC(=S)N2CCC(O)CC2)cc1	inactive: 95.4%
COc1ccc(CC(=O)NNC(=O)COc2ccc(Br)cc2C)cc1OC	inactive: 98.7%
CCc1nnc(NC(=O)COc2ccc(N(C)S(=O)(=O)c3ccc(C)cc3)cc2)s1	inconclusive: 108%
CCOc1ncccc1C(=O)N1CCN(c2cc(Cl)ccc2C)CC1	inconclusive: 94.9%
O=C(C/C=N\OCc1ccc([N+](=O)[O-])cc1)Nc1ccc(Cl)cc1	inconclusive: 113%
Cc1cc(Br)c2c(c1)/C(=C/C(=O)c1cccs1)C(=O)N2	inconclusive: 92.3%
Cc1ccc(S(=O)(=O)CCSc2cccc(C(=O)Nc3ccccc3C(=O)O)c2)cc1	inactive: 101%

SMILES	binding response (% of control)
CCN1C(=O)[C@@H]2C(C(=O)c3cnccn3)=NN[C@@H]2C1=O	inconclusive: -633%
c1ccc(C(c2ccccc2)N2CCN(Cc3nc(-c4cnccn4)no3)CC2)cc1	inconclusive: 148%
C=CCn1c(=O)c(C(C)=O)cn(N(C)c2ncc(C(F)(F)F)cc2Cl)c1=O	inconclusive: 86.2%
O=C(O)c1ncc(Cl)c(Cl)c1Cl	inconclusive: 121% and inconclusive: 102%
Cc1ccc(NC(=O)C(=O)C2C(=O)Nc3ccccc32)cc1 (configuration not stated)	inconclusive: 92.3%
COc1ccc2[nH]c(C(=O)NCCc3ccccc3)cc2c1	inconclusive: 113%
COc1cc(C2CC(=O)Oc3c(C(CCN4CCN(c5ccccc5)CC4)c4ccc(N(C)C)cc4)c(OC)cc(OC)c32)cc(OC)c1OC (configuration not stated)	inconclusive: 150%
S=C(Nc1ccccc1Cl)N(Cc1cccnc1)Cc1ccco1	inconclusive: 104%
CN(C)C(=O)CSc1nnc([C@H](Cc2ccccc2)NC(=O)OC(C)(C)C)o1	inconclusive: 120%
CN1CCCN(C(=O)Cc2c(Cl)cccc2Cl)c2nc3ccccc3nc21	inactive: 92%
NS(=O)(=O)c1ccc(NC(=O)Nc2ccccc2)cc1	inconclusive: 86.1%
CC1CCN(S(=O)(=O)c2cccc(C(=O)NNC(=O)c3ccco3)c2)CC1	inconclusive: 78.4%
CC1C2(C)OC(=N)C(C#N)(C(C)O2)C1(C#N)C#N (configuration not stated)	inconclusive: 94.9%
CC1CCCC(C)N1c1nnc(NC(=O)c2cc(-c3ccc(Br)cc3)on2)s1 (configuration not stated)	inactive: 108%
Cc1cc(-c2n[nH]c(=S)n2/N=C/c2ccc(C)o2)n[nH]1	inconclusive: 103%
O=S(=O)(Cc1noc(-c2ccccc2Cl)n1)c1ccccn1	inconclusive: 96%
O=c1[nH]nc(-c2ccc(F)cc2)cc1Cc1cccs1	inconclusive: 99.6%
CCOc1ccc(N(CC(=O)Nc2c(C)cccc2C)S(=O)(=O)c2c(C)[nH]c(=O)[nH]c2=O)cc1	inconclusive: 97.9%
COCC(C)NC(=O)/C(=C/c1ccccc1)c1ccccc1 (configuration not stated)	inconclusive: 103%
Cc1ccc(C(=O)NNC(=O)Cc2cccs2)cc1	inactive: 99.6%
CCCCCCCCCCCC(=O)NC(Cc1ccc(OC)c([N+](=O)[O-])c1)C(=O)O (configuration not stated)	inconclusive: 96.4%
